From publication PMC3877299
These are yes or no findings as the source states them, for the method shown. In cells and extracts the contact can be indirect. Some binding calls cover weakened binding; strength is not graded here.

Chains of the proteins cited; added tags and fusions are not shown. Residues count along the entry.
UniProt Q9QXX0, residues 34-1218: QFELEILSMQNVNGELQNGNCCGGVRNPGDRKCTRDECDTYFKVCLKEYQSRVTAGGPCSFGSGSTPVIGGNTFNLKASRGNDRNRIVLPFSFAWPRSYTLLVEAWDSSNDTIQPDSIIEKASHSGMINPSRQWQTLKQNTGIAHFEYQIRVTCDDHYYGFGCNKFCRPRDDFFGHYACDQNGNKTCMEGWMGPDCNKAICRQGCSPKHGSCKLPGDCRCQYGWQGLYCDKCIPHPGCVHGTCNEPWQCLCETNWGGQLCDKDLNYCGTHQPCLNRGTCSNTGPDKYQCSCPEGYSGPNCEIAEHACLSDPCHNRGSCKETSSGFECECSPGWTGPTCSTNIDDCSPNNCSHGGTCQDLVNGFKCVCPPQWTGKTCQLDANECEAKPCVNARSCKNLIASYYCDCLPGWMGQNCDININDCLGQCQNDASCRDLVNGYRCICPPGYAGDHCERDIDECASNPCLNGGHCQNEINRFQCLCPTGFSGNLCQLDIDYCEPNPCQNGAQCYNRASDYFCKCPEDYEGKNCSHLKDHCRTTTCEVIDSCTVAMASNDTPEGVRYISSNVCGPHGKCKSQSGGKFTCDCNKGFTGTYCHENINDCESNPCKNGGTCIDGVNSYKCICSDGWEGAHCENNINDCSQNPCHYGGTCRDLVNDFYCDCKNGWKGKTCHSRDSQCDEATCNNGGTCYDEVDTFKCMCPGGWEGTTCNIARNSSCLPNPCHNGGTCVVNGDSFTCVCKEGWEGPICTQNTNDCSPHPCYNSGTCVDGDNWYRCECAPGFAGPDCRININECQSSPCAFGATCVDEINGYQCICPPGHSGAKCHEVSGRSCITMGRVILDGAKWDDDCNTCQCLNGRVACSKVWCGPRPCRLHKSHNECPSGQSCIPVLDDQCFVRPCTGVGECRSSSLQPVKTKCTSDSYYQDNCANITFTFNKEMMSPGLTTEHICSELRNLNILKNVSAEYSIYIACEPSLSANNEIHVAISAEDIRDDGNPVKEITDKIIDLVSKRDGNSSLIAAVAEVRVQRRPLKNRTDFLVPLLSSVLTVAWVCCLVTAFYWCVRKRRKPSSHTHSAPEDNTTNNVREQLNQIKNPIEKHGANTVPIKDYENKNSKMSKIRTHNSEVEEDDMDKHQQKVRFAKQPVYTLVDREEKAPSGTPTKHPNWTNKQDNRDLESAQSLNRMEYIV

Target: Jag1 (mouse (endogenous in C57Bl/6J liver)) (UniProt Q9QXX0)
Assay: co-IP; Jag1 antibody (sc-6011) covalently coupled to AminoLink resin; whole liver lysate of C57Bl/6J mice at 2 weeks of age (PBS, 5 mM EDTA, 1 mM CaCl2, 0.02% sodium azide, protease and phosphatase inhibitors), pre-cleared; binding overnight at 4°C; western blot with Ddr1 antibody

B1: Ddr1 (receptor, UniProt Q03146 20-911)
chain: DADMKGHFDPAKCRYALGMQDRTIPDSDISVSSSWSDSTAARHSRLESSDGDGAWCPAGPVFPKEEEYLQVDLRRLHLVALVGTQGRHAGGLGKEFSRSYRLRYSRDGRRWMDWKDRWGQEVISGNEDPGGVVLKDLGPPMVARLVRFYPRADRVMSVCLRVELYGCLWRDGLLSYTAPVGQTMQLSEVMVHLNDSTYDGYTAGGLQYGGLGQLADGVVGLDDFRQSQELRVWPGYDYVGWSNQSFPTGYVEMEFEFDRLRTFQTMQVHCNNMHTLGARLPGGVECRFKRGPAMAWEGEPVRHALGGSLGDPRARAISVPLGGHVGRFLQCRFLFAGPWLLFSEISFISDVVNDSSDTFPPAPWWPPGPPPTNFSSLELEPRGQQPVAKAEGSPTAILIGCLVAIILLLLLIIALMLWRLHWRRLLSKAERRVLEEELTVHLSVPGDTILINNRPGPREPPPYQEPRPRGTPPHSAPCVPNGSALLLSNPAYRLLLATYARPPRGPGPPTPAWAKPTNTQACSGDYMEPEKPGAPLLPPPPQNSVPHYAEADIVTLQGVTGGNTYAVPALPPGAVGDGPPRVDFPRSRLRFKEKLGEGQFGEVHLCEVEDPQDLVSSDFPISVHKGHPLLVAVKILRPDATKNARNDFLKEVKIMSRLKDPNIIRLLGVCVQDDPLCMITDYMENGDLNQFLSARQLENKATQGLSGDTESDQGPTISYPMLLHVGAQIASGMRYLATLNFVHRDLATRNCLVGENFTIKIADFGMSRNLYAGDYYRVQGRAVLPIRWMAWECILMGKFTTASDVWAFGVTLWEVLMLCRSQPFGQLTDEQVIENAGEFFRDQGRQVYLSRPPACPQTLYELMLRCWSREPEQRPPFAQLHRFLADDALNTV
For B1, the binding was “binds”.
